This series is described as follows: peptide synthesis. The settings on record: whole synthesis.

Data on three sequences can be found in US7985831 (dated 2011).

Plain letter strings leave the end groups untold.

Regarding VIPALSEAEAGGSPEVRSSRPAWPIW, the “purity (crude or final not stated)” value worked out at 99.7%.
As for NSVKNEVEEVTFTKHTQCLGCFKSGFS, the figure is 92.3%.
The result for MIRGLFPN reads 91.0%.
